The values that follow come from PubChem BioAssay AID256 (DTP/NCI, 2004).

For the assay, the system named is CD2F1 mice, L1210 leukemia ip, survival T/C. Kind of assay: NCI In Vivo Anticancer Drug Screen. Data for tumor model L1210 Leukemia (intraperitoneal) in CD2F1 (CDF1) mice. The following applies: higher T/C = longer survival. In outline:
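Ratio T/C, where T is the treated-group value and C the vehicle-dosed control value, from mice implanted with a transplantable tumor.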

[1] abbreviates: T/C endpoint: mean survival time, dose: 100.0 mg/kg/injection, schedule: Q04DX003 (ip), vehicle: saline with Tween-80.
[2] abbreviates: T/C endpoint: mean survival time, dose: 400.0 mg/kg/injection, schedule: Q04DX003 (ip), vehicle: saline with Tween-80.
Setting [3] is: T/C endpoint: mean survival time, dose: 200.0 mg/kg/injection, schedule: Q01DX009 (ip), vehicle: saline with Tween-80.
The mark [4] stands for this setting: T/C endpoint: mean survival time, dose: 200.0 mg/kg/injection, schedule: Q04DX003 (ip), vehicle: saline with Tween-80.
Setting [5] is: T/C endpoint: mean survival time, dose: 300.0 mg/kg/injection, schedule: Q01DX001 (ip), vehicle: saline.

The list does not hold the whole screen: it gathers tests that were run many times, whatever their T/C, doses with no T/C, and many T/C values between a quarter and a half above the control. Other doses and runs of a compound stand elsewhere. T/C is the treated group as % of the vehicle group. Some entries give survivors of the animals treated and no T/C: the source holds a T/C of zero for them, seemingly a mark for toxic or unscored doses. Some survivor counts are full or nearly so, which does not show that the dose was tolerated: the source hardly ever lists a survival T/C far under the control, and the zero likely stands for such cases as well. Survivors were counted at the toxicity check, usually on the fifth day, unless a day is given; later deaths do not show. Schedule codes are those of the source, taken here to give the interval after Q, in days (D) or hours (H), and the number of doses after X. Some molecules as drawn cover several salts, stereoisomers or complexes of the source; a dose is that of the sample tested. Where survival is the endpoint, this PubChem deposit counts one and a half times the control or more as active, and values a quarter to a half above the control carry no call in these data; other NCI protocols may use other cut-offs. Some doses were run more than once; the results are listed from low to high. Some T/C values are followed by the survivors on the day toxicity was checked, most often the fifth; where none is given, no animal had died by that day.

As for `Nc1ncnc(N)c1NC(=O)c1ccc(OCCOc2ccccc2)c(Cl)c1`, the survivor count by setting is: under setting [1], 6 of 6; under setting [2], 3 of 6.

Take `N=C1c2ccccc2-c2ccccc21`: the survivor count under setting [3] is recorded as 1 of 6.

In the case of `COc1ccc(N(C)C/C(CN)=N/O)cc1`, the survivor count (T/C endpoint: mean survival time, dose: 400.0 mg/kg/injection, schedule: Q01DX001 (ip), vehicle: Klucel (hydroxypropylcellulose) (HPC)) is given as 3 of 6.

For `O=C(CCN1CC1)Nc1ccc(NC(=O)CCN2CC2)cc1`, the T/C is 137 % of control (T/C endpoint: mean survival time, dose: 10.0 mg/kg/injection, schedule: Q04DX003 (ip), vehicle: Klucel (hydroxypropylcellulose) (HPC)); 135 % of control (T/C endpoint: mean survival time, dose: 20.0 mg/kg/injection, schedule: Q04DX003 (ip), vehicle: Klucel (hydroxypropylcellulose) (HPC)); 147 % of control (T/C endpoint: mean survival time, dose: 40.0 mg/kg/injection, schedule: Q04DX003 (ip), vehicle: Klucel (hydroxypropylcellulose) (HPC)).

Turning to `Nc1cc(NC(c2ccccc2)c2ccccc2)c2[nH]cnc2n1`, the survivor count (T/C endpoint: mean survival time, dose: 400.0 mg/kg/injection, schedule: Q01DX001 (ip), vehicle: other) is on record as 1 of 6.

With `COC1=C(C)C(=O)C2=C(C1=O)C(COC(N)=O)C1(OC)C3C(CN21)N3C(=O)c1ccccc1` (stereo not given), the survivor count (T/C endpoint: mean survival time, dose: 100.0 mg/kg/injection, schedule: Q01DX001 (ip), vehicle: carboxymethylcellulose (CMC)) is recorded as 1 of 3; the survivor count (T/C endpoint: mean survival time, dose: 150.0 mg/kg/injection, schedule: Q01DX001 (ip), vehicle: carboxymethylcellulose (CMC)) was 0 of 3; the survivor count (T/C endpoint: mean survival time, dose: 225.0 mg/kg/injection, schedule: Q01DX001 (ip), vehicle: carboxymethylcellulose (CMC)) is on record as 0 of 3.

Consider `NNC(=O)c1cc(NN)ccn1`, for which the survivor count under setting [3] is listed as 1 of 6 and the survivor count under setting [2] is given as 6 of 6.

For `CC([NH-])CC[NH-].O=[N+]([O-])O.O=[N+]([O-])O.[Pt+2]` (stereo not given), the T/C runs as follows: (T/C endpoint: mean survival time, dose: 3.12 mg/kg/injection, schedule: Q04DX003 (ip), vehicle: saline with Tween-80) 132 % of control; (T/C endpoint: mean survival time, dose: 12.5 mg/kg/injection, schedule: Q04DX003 (ip), vehicle: saline with Tween-80) 148 % of control.

Turning to `C[N+]1(CCO)C2CCC1CC(O)C2` (stereo not given), under “T/C endpoint: mean survival time, dose: 400.0 mg/kg/injection, schedule: Q04DX002 (ip), vehicle: saline”, the survivor count is 0 of 3.

For the molecule `Clc1c(Cl)c(Cl)[c]([Hg][c]2c(Cl)c(Cl)c(Cl)c(Cl)c2Cl)c(Cl)c1Cl`, the survivor count reads like this: under setting [4], 2 of 6; under setting [2], 0 of 6.

Take `CC(=O)Oc1cc2c3c(c1)CCCN3CCC2`: the survivor count is, setting by setting: (T/C endpoint: mean survival time, dose: 10.0 mg/kg/injection, schedule: Q04DX003 (ip), vehicle: saline) 2 of 6; (T/C endpoint: mean survival time, dose: 20.0 mg/kg/injection, schedule: Q04DX003 (ip), vehicle: saline) 0 of 6; (T/C endpoint: mean survival time, dose: 25.0 mg/kg/injection, schedule: Q01DX009 (ip), vehicle: saline with Tween-80) 3 of 6; under setting [1], 0 of 6; under setting [4], 0 of 6; under setting [2], 0 of 6.

For the molecule `Cc1ccc(N=C(N)NC#N)cc1C`, the survivor count (T/C endpoint: mean survival time, dose: 400.0 mg/kg/injection, schedule: Q01DX009 (ip), vehicle: saline with Tween-80) is recorded as 6 of 6.

On to `CC1(C)OCC2OC3(CO)NP(=O)(N(CCCl)CCCl)OC3C2O1` (stereo not given), for which, where the note is “T/C endpoint: mean survival time, dose: 500.0 mg/kg/injection, schedule: Q01DX001 (ip), vehicle: distilled water + Tween-80”, the survivor count is listed as 3 of 6.

On to `CC1[N-]C(/C=N/O)NC(C)N1.CC1[N-]C(/C=N/O)NC(C)N1.[Br][Ni+2][Br]` (stereo not given), for which the survivor count by setting is: (T/C endpoint: mean survival time, dose: 150.0 mg/kg/injection, schedule: Q01DX001 (ip), vehicle: saline) 1 of 6; under setting [5], 0 of 6.

With `COc1cc2c(cc1OC)NC(=O)CC(=O)N2`, the survivor count under setting [1] is listed as 6 of 6.

For the molecule `Cc1nc(Cl)c(C)c(C(=O)O)n1`, the survivor count (T/C endpoint: mean survival time, dose: 200.0 mg/kg/injection, schedule: Q01DX009 (ip), vehicle: other) was 1 of 6.

With `CCC1CC2CN(CCc3c([nH]c4ccccc34)C(C(=O)OC)(c3cc4c(cc3OC)N(C)C3C(O)(C(=O)OC)C(OC(C)=O)C5(CC)C=CCN6CCC43C65)C2)C1` (stereo not given), the T/C (T/C endpoint: median survival time, dose: 2.0 mg/kg/injection, schedule: Q01DX009 (ip), vehicle: saline) is 132 % of control. Moreover, the survivor count is listed as 10 of 10 (T/C endpoint: median survival time, dose: 4.0 mg/kg/injection, schedule: Q01DX009 (ip), vehicle: water) and 0 of 10 (T/C endpoint: median survival time, dose: 8.0 mg/kg/injection, schedule: Q01DX009 (ip), vehicle: water).

`CCOC(=O)c1cnc(=O)[nH]c1N`: under setting [2], the survivor count is 0 of 6.

Consider `C#CCNc1ncnc2c1ncn2C1OC(CO)C(O)C1O` (stereo not given), for which, where the note is “T/C endpoint: mean survival time, dose: 400.0 mg/kg/injection, schedule: Q01DX005 (ip), vehicle: other”, the survivor count is reported as 2 of 6.

With `Cc1ccc(/C=N/NC(=O)CNC(=O)Nc2cccc([N+](=O)[O-])c2)cc1`, under setting [3], the survivor count is on record as 3 of 3.

In the case of `CC1CCC2(C)CCC3(C)C4=CCC5C(C)(C)C(O)CCC5(C)C4CCC3(C)C2C1C` (stereo not given), the survivor count (T/C endpoint: mean survival time, dose: 100.0 mg/kg/injection, schedule: Q04DX003 (ip), vehicle: saline) is reported as 6 of 6.

On to `OC1(c2ccccc2)CCN(C/C=C/c2ccccc2)CC1`, for which the survivor count is 3 of 6 (T/C endpoint: mean survival time, dose: 200.0 mg/kg/injection, schedule: Q01DX001 (ip), vehicle: saline with Tween-80) and 0 of 6 (T/C endpoint: mean survival time, dose: 400.0 mg/kg/injection, schedule: Q01DX001 (ip), vehicle: saline with Tween-80).

As to `CC(=O)Nc1ccc(/C=N/NC(=O)CNC(=O)Nc2cccc([N+](=O)[O-])c2)cc1`, the survivor count (T/C endpoint: mean survival time, dose: 50.0 mg/kg/injection, schedule: Q01DX009 (ip), vehicle: saline with Tween-80) is 2 of 3 and the survivor count under setting [3] is on record as 3 of 3.

For the molecule `C1C2CC3CC3CC12` (stereo not given), the survivor count is listed as 3 of 6 under setting [4] and 0 of 6 under setting [2].

In the case of `O=NNc1cccc(NN=O)n1`, the T/C was 137 % of control (T/C endpoint: median survival time, dose: 12.5 mg/kg/injection, schedule: Q01DX005 (ip), vehicle: saline); 141 % of control [5 of 6 alive] (T/C endpoint: median survival time, dose: 19.0 mg/kg/injection, schedule: Q01DX005 (ip), vehicle: saline); 127 and 138 % of control (T/C endpoint: median survival time, dose: 25.0 mg/kg/injection, schedule: Q01DX005 (ip), vehicle: saline); 141 and 142 % of control (T/C endpoint: median survival time, dose: 50.0 mg/kg/injection, schedule: Q01DX005 (ip), vehicle: saline); 141 % of control (T/C endpoint: median survival time, dose: 66.0 mg/kg/injection, schedule: Q01DX005 (ip), vehicle: saline).

With `CCCCCCCCCCCCCCCC(=O)N(C/C=C/CN(CCCN(C)C)C(=O)CCCCCCCCCCCCCCC)CCCN(C)C`, the survivor count is recorded as 0 of 6 under setting [1], 0 of 6 under setting [4] and 0 of 6 under setting [2].

Take `O=C(OC(CC[P+](c1ccccc1)(c1ccccc1)c1ccccc1)(C(=O)c1ccccc1)c1ccccc1)c1ccccc1` (stereo not given): the survivor count (T/C endpoint: mean survival time, dose: 25.0 mg/kg/injection, schedule: Q04DX003 (ip), vehicle: saline with Tween-80) was 2 of 6; the survivor count (T/C endpoint: mean survival time, dose: 50.0 mg/kg/injection, schedule: Q04DX003 (ip), vehicle: saline with Tween-80) is 0 of 6; the survivor count under setting [1] was 0 of 6.

Consider `CC(CN=[N+]=[N-])OC(=O)C(F)(F)F` (stereo not given), for which the survivor count (T/C endpoint: mean survival time, dose: 150.0 mg/kg/injection, schedule: Q01DX009 (ip), vehicle: saline) is 0 of 6 and the survivor count under setting [5] was 2 of 6.

On to `C/C=C/C=C\C=C/C(O)CC(OP(=O)(O)O)C(C)(O)/C=C/C1CC=CC(=O)O1` (stereo not given), for which the T/C (T/C endpoint: median survival time, dose: 1.5 mg/kg/injection, schedule: Q01DX009 (ip), vehicle: water) is 132 % of control. Moreover, the survivor count (T/C endpoint: median survival time, dose: 12.0 mg/kg/injection, schedule: Q01DX009 (ip), vehicle: water) is 0 of 6.

For `CCN(CC)Cc1ccc([NH-])c([NH-])c1.CCN(CC)Cc1ccc([NH-])c([NH-])c1.[Cl][Pt+2][Cl].[Cl][Pt+2][Cl].[Cl][Pt+2][Cl]`, the survivor count is reported as 0 of 6 (T/C endpoint: mean survival time, dose: 100.0 mg/kg/injection, schedule: Q04DX003 (ip), vehicle: water) and 0 of 6 (T/C endpoint: mean survival time, dose: 200.0 mg/kg/injection, schedule: Q04DX003 (ip), vehicle: water).
